Article PMC2721980
Results are given in words; binding and its absence hold for the method and conditions named. Some binding calls cover weakened binding; strength is not graded here.

Amino acid sequences for entries named in this document (tags omitted).
UniProt P35222: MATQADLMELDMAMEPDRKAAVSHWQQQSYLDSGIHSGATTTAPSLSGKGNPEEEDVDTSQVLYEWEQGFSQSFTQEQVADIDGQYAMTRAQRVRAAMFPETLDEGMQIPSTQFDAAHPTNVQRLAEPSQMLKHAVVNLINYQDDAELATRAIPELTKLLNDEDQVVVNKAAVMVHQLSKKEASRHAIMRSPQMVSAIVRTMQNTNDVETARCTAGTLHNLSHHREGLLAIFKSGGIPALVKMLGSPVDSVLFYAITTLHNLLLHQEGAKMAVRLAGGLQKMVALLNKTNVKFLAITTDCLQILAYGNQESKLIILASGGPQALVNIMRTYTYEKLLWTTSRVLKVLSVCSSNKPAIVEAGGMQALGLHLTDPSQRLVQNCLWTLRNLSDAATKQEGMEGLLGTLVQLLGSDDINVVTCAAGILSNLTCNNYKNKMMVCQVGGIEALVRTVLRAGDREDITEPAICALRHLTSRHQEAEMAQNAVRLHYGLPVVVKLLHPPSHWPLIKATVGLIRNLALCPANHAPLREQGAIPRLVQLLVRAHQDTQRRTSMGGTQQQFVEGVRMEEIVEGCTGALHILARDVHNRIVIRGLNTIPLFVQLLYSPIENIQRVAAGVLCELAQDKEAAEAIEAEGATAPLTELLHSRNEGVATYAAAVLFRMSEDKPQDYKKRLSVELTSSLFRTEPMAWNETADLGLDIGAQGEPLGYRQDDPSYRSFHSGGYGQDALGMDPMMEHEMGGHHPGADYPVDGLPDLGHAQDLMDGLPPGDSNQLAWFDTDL

Target: pBIND-β-catenin (UniProt P35222)
Assay: two-hybrid; mammalian two-hybrid in HEK293T: pACT-JNK2, pBind-β-catenin and pG5luc co-transfected, dual luciferase read-out after 48 h; empty pACT and pBind as negative controls

binding: binds
Substance: pACT-JNK2 (from UniProt P45984 1-424)
